Experimental data as given in patent US20100041074A1.
These are yes or no findings as the source states them, for the method shown. Some results given as binding are weak or reduced against the parent protein; the word gives no strength.

Protein sequences, listed by entry. Tags and fused reporters are not part of them. Lines headed by an entry give the natural chain unless they say otherwise; changes in a name come on top.
UniProt P11021: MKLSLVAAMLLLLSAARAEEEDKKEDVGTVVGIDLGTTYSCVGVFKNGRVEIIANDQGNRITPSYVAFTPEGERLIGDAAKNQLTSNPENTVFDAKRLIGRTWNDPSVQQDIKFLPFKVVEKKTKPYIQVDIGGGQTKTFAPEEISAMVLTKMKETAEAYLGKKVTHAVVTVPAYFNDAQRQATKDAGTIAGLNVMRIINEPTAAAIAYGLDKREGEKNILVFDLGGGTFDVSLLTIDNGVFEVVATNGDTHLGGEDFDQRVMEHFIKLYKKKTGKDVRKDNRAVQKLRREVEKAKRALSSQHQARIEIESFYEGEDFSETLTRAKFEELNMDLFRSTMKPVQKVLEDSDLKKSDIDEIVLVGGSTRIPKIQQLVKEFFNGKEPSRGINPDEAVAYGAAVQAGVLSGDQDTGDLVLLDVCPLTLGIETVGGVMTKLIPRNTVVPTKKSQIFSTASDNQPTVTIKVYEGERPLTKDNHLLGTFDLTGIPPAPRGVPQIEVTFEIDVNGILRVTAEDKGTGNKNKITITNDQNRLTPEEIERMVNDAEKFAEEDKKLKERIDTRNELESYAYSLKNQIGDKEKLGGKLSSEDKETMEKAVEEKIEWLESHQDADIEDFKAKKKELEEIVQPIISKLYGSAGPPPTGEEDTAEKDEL

What was measured:
[1] = molecular target: GRP78 localized on the cell surface of human cancer cells (human) (UniProt P11021); test: FACS on DU145 cells
[2] = molecular target: GST-GRP78 (376-415) (human); test: western blot of GST fused GRP78 fragments (345-385, 376-415, 406-445)
[3] = molecular target: GRP78 protein (amino acids 19-654) purified from E. coli (human) (UniProt P11021); test: ELISA, plate coated with GRP78 protein purified from E. coli, hybridoma culture supernatant
[4] = molecular target: GST fused GRP78 protein (GST-GRP78) purified from E. coli (human) (UniProt P11021); test: western blot, GST fused GRP78 protein (0.1 ug), antibody 2 µg/ml
[5] = molecular target: GRP78 localized on the cell surface of human cancer cells (human) (UniProt P11021); test: FACS on DU145 cells, antibody 10 µg/ml
[6] = molecular target: GRP78 expressed in human cells (cell lysate) (human) (UniProt P11021); test: western blot, DU145 cell lysate, antibody 2 µg/ml

Measured: binding

B1: GA-21 antibody (antibody, IgG3, V domains shown)
VH: QVQLKQSGPGLVQPSQSLSITCTVSGFSLTSYGVHWVRQSPGKGLEWLGVIWSGGSTDYNEAFISRLSISKDNSKSQVFFKMNSLQANDTAIYYCARNWDYWGQGTTLTVSS
VL: DIVMSQSPSSLAVSAGEKVTMSCKSSQSLLNSRTRKNYLAWYQQKPGQSPKLLIYWASTRESGVPDRFTGSGSGTDFTLTISSVQAEDLAVYYCKQSYNLRTFGGGTKLEIK
binds: all assays above
